Measured values from PubChem BioAssay AID1671190 (National Center for Advancing Translational Sciences (NCATS), 2021).
Several values for one entry are separate records, joined by “and”; a condition that tells them apart may be missing. Equal values may be shown once. Among all 580,000 compounds or so, about 6,100 (1.1%) were called active. Inconclusive means that the source gave no clear call. Such entries were picked first, then a sample of the others. The call rests on the fitted dose curve; in most records, active means well fitted inhibition curve with a large enough effect; inconclusive means small, poorly fitted or top-dose-only effect, or another doubt; inactive means no such curve, though single readings can be large or run the other way. Potencies beside an inconclusive call are fits to weak or partial responses and may not hold up.

Protein sequences, listed by entry. Tags and fused reporters are not part of them. Lines headed by an entry give the natural chain unless they say otherwise; changes in a name come on top.
UniProt P18054: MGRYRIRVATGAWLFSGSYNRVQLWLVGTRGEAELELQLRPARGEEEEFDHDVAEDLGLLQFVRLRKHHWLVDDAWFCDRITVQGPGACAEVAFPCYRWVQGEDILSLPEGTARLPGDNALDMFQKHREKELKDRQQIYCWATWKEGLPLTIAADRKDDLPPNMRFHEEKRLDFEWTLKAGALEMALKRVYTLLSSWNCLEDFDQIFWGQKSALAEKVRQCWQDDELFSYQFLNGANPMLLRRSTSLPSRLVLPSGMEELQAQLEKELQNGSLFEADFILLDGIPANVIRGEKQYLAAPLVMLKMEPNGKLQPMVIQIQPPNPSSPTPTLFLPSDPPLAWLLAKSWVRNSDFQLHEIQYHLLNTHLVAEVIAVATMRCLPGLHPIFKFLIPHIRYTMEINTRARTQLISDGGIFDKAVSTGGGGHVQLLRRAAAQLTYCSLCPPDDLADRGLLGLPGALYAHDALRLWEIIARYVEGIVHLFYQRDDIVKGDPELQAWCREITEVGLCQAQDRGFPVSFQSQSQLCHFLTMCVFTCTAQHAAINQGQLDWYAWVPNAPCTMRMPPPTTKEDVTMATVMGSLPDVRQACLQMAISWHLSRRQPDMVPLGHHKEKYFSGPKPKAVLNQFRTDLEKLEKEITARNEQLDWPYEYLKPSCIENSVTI

Biological target: Polyunsaturated fatty acid lipoxygenase ALOX12 (Homo sapiens) (UniProt P18054)
Assay: Primary qHTS assay for inhibitors of human arachidonate 12S-lipoxygenase (ALOX12): Round 2
Conditions: purified 12hLO, xylenol orange hydroperoxide absorbance; activity change, negative = inhibition: at 108 µM (top of the series) unless noted
Procedure, shortened: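 Hydroperoxide product was detected by ferrous iron/xylenol orange as the 573 to 405 nm absorbance ratio. Arachidonic acid at 40 uM (final) was turned over for 30 min at room temperature by 150 nM human 12hLO, pH 7.0 Hepes buffer, after 15 min compound preincubation.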
On the % scale 0 is the no-effect control and ±100 the full control effect; potency means the concentration at half of the fitted maximal effect.

Structure (SMILES)	Potency	activity change, negative = inhibition
Cc1cc(C)c2c(=O)[nH]c(SCC(=O)N3CCOCC3)nc2n1	inconclusive: 0.316 µM [inhibitor, full curve, poor fit]	
CCN1C(=O)/C(=C\c2ccc3c(c2)OCO3)C(C(=O)OC)=C1C	inconclusive: 44.7 µM [inhibitor, partial curve, poor fit]	
CCCCNC(=O)COC(=O)c1c2c(nc3ccccc13)CCC2	inconclusive: 44.7 µM [inhibitor, partial curve, poor fit]	
COCCN1C(=O)/C(=C/c2cc3c(cc2Br)OCO3)NC1=S	inconclusive: 56.2 µM [inhibitor, partial curve, poor fit]	
Cc1cc(C)cc(NC(=O)Nc2ccccc2OCc2cc(=O)n3ccccc3n2)c1	inconclusive: 126 µM [inhibitor, partial curve, poor fit]	
c1ccc(Oc2ccc(-c3cc(NCCc4cccnc4)n4nccc4n3)cc2)cc1	inconclusive: 28.2 µM [inhibitor, partial curve, poor fit]	
CCOC(=O)C1=CN(Cc2cccc(F)c2)S(=O)(=O)N(CC)C1c1ccc2ccccc2c1 (stereo unspecified)	inconclusive: 39.8 µM [inhibitor, single point]	
CCOc1ccccc1NC(=O)c1c(NCc2cccs2)sc2c1CCCCC2	inconclusive: 126 µM [inhibitor, partial curve, poor fit]	
CCC1C(=O)NCCN1Cc1nc(-c2ccc(C)s2)oc1C (stereo unspecified)		inactive: -13.2%
COc1ccc(N2CC(C)Cn3c2nc2c3c(=O)n(Cc3ccc(C)cc3)c(=O)n2C)c(OC)c1 (stereo unspecified)	inconclusive: 44.7 µM [inhibitor, partial curve, poor fit]	
O=c1ccc2ccc(OCc3nc(-c4cccc(Cl)c4)no3)cc2o1	inconclusive: 2.24 µM [inhibitor, full curve, poor fit]	
O=C(NCC(c1ccco1)N1CCc2ccccc2C1)c1ccc(F)cc1 (stereo unspecified)	inconclusive: 6.31 µM [inhibitor, full curve]	
Cc1ccccc1NC1=NC(=S)N(CC(N)=O)C12CCOC(C)(C)C2 (stereo unspecified)	inconclusive: 35.5 µM [inhibitor, single point]	
COc1ccc(NC2c3ncccc3C(=O)N2Cc2ccccc2)c(OC)c1 (stereo unspecified)	inconclusive: 44.7 µM [inhibitor, partial curve, poor fit]	
C=CCN1C(=O)/C(=C/c2ccc(OC(C)=O)c(OCC)c2[N+](=O)[O-])SC1=S	inconclusive: 39.8 µM [inhibitor, partial curve]	
CNC(=O)[C@H]1C[C@H](Oc2ccccc2)CN1C(=O)c1cc(-c2ccccc2)n[nH]1	inconclusive: 3.55 µM [inhibitor, full curve]	
CC(=O)c1cn(CC(=O)NCc2ccccc2)c2ccccc12		inactive: 14.8%
CNC(=O)CN(C)C(=O)c1ccc(N2CCNCC2)c(NS(=O)(=O)c2ccc(C(C)C)cc2)c1	inconclusive: 44.7 µM [inhibitor, partial curve, poor fit]	
CC(C)(C)n1nnnc1C(c1cccnc1)N1CCN(c2cccc(C(F)(F)F)c2)CC1 (stereo unspecified)		inactive: 5.14%
O=C(/C=C/c1ccc(Br)cc1)c1ccc(NC2=NCCCS2)cc1	inconclusive: 100 µM [inhibitor, single point]	
CCc1cc2c(cc3c(=O)n(CC(=O)NC4CCCCC4)ncn32)s1	inconclusive: 89.1 µM [inhibitor, partial curve, poor fit]	

Structure (SMILES)	Potency	activity change, negative = inhibition
CC(C)(C)C1CCC2(CC1)NC(=O)N(CC(=O)Nc1ccc3c(c1)OCCO3)C2=O (stereo unspecified)	inconclusive: 35.5 µM [inhibitor, partial curve]	
O=C1NC2(CCCCCC2)NN1c1ccc(Br)cc1	inconclusive: 4.47 µM [inhibitor, full curve, poor fit]	
O=C(/C=C/c1cccc([N+](=O)[O-])c1)c1ccc(OC(F)F)cc1OC(F)F	inconclusive: 44.7 µM [inhibitor, partial curve, poor fit]	
Cc1cnn(Cc2cc(C(=O)N3CCCCCC3c3nnc(-c4ccccc4)o3)no2)c1 (stereo unspecified)		inactive: 57%
O=C1c2cccc3cccc(c23)N1S(=O)(=O)c1cccs1	inconclusive: 25.1 µM [inhibitor, partial curve]	
Cc1ccc(S(=O)(=O)NCCC(=O)NNC(=O)c2ccccc2O)cc1C	inconclusive: 0.178 µM [inhibitor, full curve, poor fit]	
CCOc1ccc(N(C(C)C(=O)NCCSc2ccc(C)cc2)S(C)(=O)=O)cc1 (stereo unspecified)	inconclusive: 14.1 µM [inhibitor, partial curve, poor fit]	
CCOc1cccc(C2CC(=O)Nc3c2c(=O)nc(SCc2ccccc2Cl)n3C)c1 (stereo unspecified)	inconclusive: 0.447 µM [inhibitor, full curve, poor fit]	
O=C(COc1ncnc2ccccc12)Nc1ccc(F)cc1		inactive: -43.7%
CCc1nc2sc3c(=O)[nH]cnc3c2c2c1CSC(C)(C)C2	inconclusive: 4.47 µM [inhibitor, full curve, poor fit]	
CC(C)CN1C(=O)c2ccccc2C(C(=O)NCc2ccccn2)C12CCCCC2 (stereo unspecified)		inactive: 50.4%
CC1(C)CC(=O)C=C(c2ccc(-c3ccc(S(C)(=O)=O)cc3)cc2)C1=O	inconclusive: 44.7 µM [inhibitor, partial curve, poor fit]	
O=C(NC1CCCCCCC1)c1ccc(Br)o1	inconclusive: 44.7 µM [inhibitor, partial curve, poor fit]	
CN(C)C(=O)C(=O)c1c(-c2ccccc2)cc2ccccn12	inconclusive: 17.8 µM [inhibitor, partial curve, poor fit]	
CCC(CC)C(=O)NCCc1cc2c(C)ccc(C)c2[nH]c1=O	inconclusive: 100 µM [inhibitor, single point]	
COC(=O)CCCn1cc(CN(C)C2CN(Cc3cn(CCCC(=O)OC)nn3)S(=O)(=O)C2)nn1 (stereo unspecified)	inconclusive: 35.5 µM [inhibitor, partial curve, poor fit]	
COCCn1c(-n2nc(C)c(C)c2C)nc2c1c(=O)n(CC(=O)C(C)(C)C)c(=O)n2C		inactive: -4.12%
COc1ccc(C)cc1NC(=O)COC(=O)c1c(-c2ccccc2)noc1C	inconclusive: 100 µM [inhibitor, partial curve, poor fit]	
CCCCc1nc2ccccc2c(NC(=O)CN(CC)CC)c1CCC	inconclusive: 3.16 µM [inhibitor, full curve, poor fit]	
Cc1nn(-c2ccccc2)c2c1N(CCCC(=O)NCc1ccccc1)C(=O)CS2	inconclusive: 178 µM [inhibitor, partial curve, poor fit]	
CCOC(=O)C1=NNC2(c3ccc(C)cc3)C(=O)N(c3ccc(Cl)cc3)C(=O)C12 (stereo unspecified)	inconclusive: 79.4 µM [inhibitor, partial curve, poor fit]	

Part of the list above, in markdown.

| Structure (SMILES) | Potency | activity change, negative = inhibition |
| --- | --- | --- |
| O=c1ccc2ccc(OCc3nc(-c4cccc(Cl)c4)no3)cc2o1 | inconclusive: 2.24 µM [inhibitor, full curve, poor fit] |  |
| O=C(/C=C/c1cccc([N+](=O)[O-])c1)c1ccc(OC(F)F)cc1OC(F)F | inconclusive: 44.7 µM [inhibitor, partial curve, poor fit] |  |

Next structures follow.

Structure (SMILES)	Potency	activity change, negative = inhibition
CCOc1ccc(NC(=O)CCNc2c(C)nc3cnccn23)cc1	inconclusive: 70.8 µM [inhibitor, partial curve]	
Cc1noc(-c2ccc(OC3CN(S(=O)(=O)c4cn(C)cn4)C3)cc2)n1	inconclusive: 22.4 µM [inhibitor, full curve, poor fit]	
Cc1c(Cl)cccc1NC(=S)NCCc1ccccn1		inactive: 0%
CCCc1ccc(S(=O)(=O)N2CCN(C(C)C(=O)NCc3ccccc3)CC2)cc1 (stereo unspecified)		inactive: -15.1%
CC(=O)NCCC(=O)Nc1cc(S(=O)(=O)N2CCCCC2)ccc1Oc1ccccc1		inactive: -3.64%
CN1CCN(C(=O)CCCN2C(=O)/C(=C/c3cccc(Br)c3)SC2=S)CC1	inconclusive: 44.7 µM [inhibitor, partial curve, poor fit]	
COc1ccc(NC(=O)C(C)Sc2cc(-c3ccccc3)nc(C)n2)cc1Cl (stereo unspecified)		inactive: -24.1%
Cc1ccc(C)c(OCCCN2CCNCC2)c1	inconclusive: 31.6 µM [inhibitor, partial curve, poor fit]	
COc1ccc(C2/C(=C(\O)c3cccc(OC)c3)C(=O)C(=O)N2c2ccccn2)cc1 (stereo unspecified)	inconclusive: 50.1 µM [inhibitor, partial curve, poor fit]	
C=CC[C@H]1CC=C[C@H](CC=C)[N+]1(C)C	inconclusive: 39.8 µM [inhibitor, partial curve, poor fit] and active: 7.08 µM	
CCCS(=O)(=O)c1c(S(=O)(=O)CCC)c2ccc(C(N)=O)cn2c1C(=O)c1ccccc1	inconclusive: 79.4 µM [inhibitor, partial curve, poor fit]	
CCOc1ccc2oc(=O)cc(CN3CCN(Cc4ccccc4F)CC3)c2c1	inconclusive: 0.251 µM [inhibitor, full curve, poor fit]	
NC(=O)N1CCN(CCCN2c3ccccc3Sc3cc(Cl)ccc32)CC1	inconclusive: 70.8 µM [inhibitor, partial curve, poor fit]	
Cc1cccc(NC(=O)c2ccc3ccccc3n2)c1	inconclusive: 50.1 µM [inhibitor, partial curve, poor fit]	
CCN(Cc1ccc(OC)c(OC)c1)C(=O)c1cc(C)nc2ccccc12	inconclusive: 56.2 µM [inhibitor, partial curve, poor fit]	
N=c1sccn1CC(=O)Nc1ccccc1Oc1ccccc1		inactive: 2.19%
CC(=O)SCC(=O)C(C#N)c1ccccn1 (stereo unspecified)	inconclusive: 2.82 µM [inhibitor, full curve, poor fit]	
O=C(CN1CCN(c2nc3ncccc3o2)CC1)c1cccc(Cl)c1		inactive: 9.13%
Cc1ccc(OCCOCCn2cnc3ccccc3c2=O)c([N+](=O)[O-])c1		inconclusive: -31.2% [inhibitor]
